Measured values as given in the supplement of paper PMC6078165.

Tested on: MDAMB468
Test: relative JC-1 red fluorescence (viability) vs pre-drug, coculture with fibroblast (fraction); higher = more viable cancer cells
Procedure: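 JC-1 labelled TNBC cells cocultured 1:1 (1,500 cells each) with CellTrace Violet stained primary or stromal fibroblasts in 384-well plates in FluoroBrite medium, treated with one of 42 anticancer drugs at 0.1, 1, 10 or 100 uM. JC-1 red fluorescence (mitochondrial integrity in cancer cells only) was read by plate reader every 8 h for 72 h. Values are normalised to each well's pre-drug value. The stock of one drug was tenfold lower, so its dose labels may be too high.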

CC(=O)c1c(C)c2cnc(Nc3ccc(N4CCNCC4)cn3)nc2n(C2CCCC2)c1=O [Palbociclib]
relative JC-1 red fluorescence
Details	8 h	16 h	24 h	32 h	40 h	48 h	56 h	64 h	72 h
0.1 µM, coculture fibroblast: C12385	0.889	0.826	0.785	0.739	0.701	0.699	0.657	0.632	0.628
0.1 µM, coculture fibroblast: H6013	0.89903	0.8285	0.802	0.802	0.788	0.804	0.777	0.772	0.72
0.1 µM, coculture fibroblast: H6019	0.822	0.836	0.822	0.78	0.745	0.74	0.686	0.656	0.631
0.1 µM, coculture fibroblast: H6076	0.958	0.884	0.927	0.938	0.87	0.868	0.828	0.83	0.888
0.1 µM, coculture fibroblast: H6231	0.826	0.88	0.942	0.88	0.841	0.814	0.744	0.708	0.6737
0.1 µM, coculture fibroblast: HADF	0.8944	0.8202	0.776	0.768	0.708	0.709	0.676	0.6694	0.6335
0.1 µM, coculture fibroblast: HCFa	0.879	0.811	0.753	0.719	0.641	0.629	0.573	0.536	0.497
0.1 µM, coculture fibroblast: HCPF	0.8779	0.991	0.911	0.899	0.842	0.806	0.743	0.714	0.692
0.1 µM, coculture fibroblast: HHSteC	0.9014	0.848	0.805	0.773	0.73	0.732	0.668	0.647	0.603
0.1 µM, coculture fibroblast: HMF	0.8495	0.936	0.918	0.879	0.832	0.81	0.752	0.721	0.694
0.1 µM, coculture fibroblast: HPFa	0.914	0.87	0.82	0.761	0.701	0.689	0.621	0.588	0.52
0.1 µM, coculture fibroblast: HUF	0.9188	0.848	0.799	0.733	0.684	0.655	0.606	0.579	0.555
0.1 µM, coculture fibroblast: Hs5	0.786	0.916	0.964	0.952	0.869	0.834	0.791	0.749	0.768
0.1 µM, coculture fibroblast: Hs27A	0.866	0.805	0.771	0.7793	0.71	0.711	0.657	0.635	0.587
0.1 µM, coculture fibroblast: Hs343T	0.9088	0.924	0.936	0.895	0.822	0.793	0.7184	0.696	0.659
0.1 µM, coculture fibroblast: WS1	0.8784	0.773	0.718	0.667	0.611	0.585	0.564	0.545	0.538
1 µM, coculture fibroblast: C12385	0.90499	0.8191	0.831	0.788	0.743	0.738	0.696	0.6793	0.6727
1 µM, coculture fibroblast: H6013	0.9216	0.8988	0.885	0.901	0.903	0.927	0.91	0.918	0.874
1 µM, coculture fibroblast: H6019	0.8175	0.815	0.785	0.731	0.698	0.678	0.638	0.599	0.57
1 µM, coculture fibroblast: H6076	0.925	0.879	0.942	0.946	0.892	0.88	0.853	0.842	0.889
1 µM, coculture fibroblast: H6231	0.842	0.955	0.863	0.857	0.814	0.789	0.726	0.7	0.673
1 µM, coculture fibroblast: HADF	0.9113	0.869	0.817	0.8154	0.772	0.7611	0.7281	0.724	0.685
1 µM, coculture fibroblast: HCFa	0.875	0.858	0.814	0.793	0.7406	0.7378	0.688	0.65	0.592
1 µM, coculture fibroblast: HCPF	0.8922	0.9443	0.882	0.883	0.829	0.812	0.76	0.748	0.733
1 µM, coculture fibroblast: HHSteC	0.94	0.8946	0.864	0.842	0.816	0.813	0.764	0.743	0.691
1 µM, coculture fibroblast: HMF	0.862	0.9359	0.881	0.861	0.799	0.794	0.754	0.737	0.725
1 µM, coculture fibroblast: HPFa	0.966	0.9246	0.884	0.84	0.804	0.79	0.732	0.696	0.618
1 µM, coculture fibroblast: HUF	0.9348	0.831	0.7922	0.73801	0.689	0.658	0.611	0.585	0.561
1 µM, coculture fibroblast: Hs5	0.724	0.95	0.933	0.927	0.869	0.844	0.813	0.781	0.804
1 µM, coculture fibroblast: Hs27A	0.8942	0.868	0.8215	0.8366	0.772	0.77	0.723	0.696	0.641
1 µM, coculture fibroblast: Hs343T	0.903	0.9474	0.917	0.91	0.853	0.835	0.795	0.785	0.766
1 µM, coculture fibroblast: WS1	0.896	0.801	0.751	0.695	0.653	0.625	0.599	0.574	0.566
10 µM, coculture fibroblast: C12385	0.92	0.9112	0.91088	0.8846	0.8659	0.8775	0.82879	0.7803	0.746
10 µM, coculture fibroblast: H6013	0.932	0.932	0.923	0.839	0.958	0.848	0.889	0.86	0.866
10 µM, coculture fibroblast: H6019	0.8774	0.883	0.896	0.847	0.831	0.81	0.757	0.73	0.718
10 µM, coculture fibroblast: H6076	0.97567	0.823	0.803	0.7339	0.928	0.83	0.928	0.911	0.913
10 µM, coculture fibroblast: H6231	0.8322	0.801	0.86	0.893	0.827	0.785	0.955	0.943	0.903
10 µM, coculture fibroblast: HADF	0.9243	0.937	0.9226	0.976	0.932	0.941	0.908	0.903	0.881
10 µM, coculture fibroblast: HCFa	0.8978	0.903	0.9048	0.9149	0.858	0.847	0.7925	0.7501	0.7051
10 µM, coculture fibroblast: HCPF	0.8871	0.748	0.777	0.759	0.834	0.851	0.845	0.943	0.878
10 µM, coculture fibroblast: HHSteC	0.9559	0.9366	0.918	0.933	0.902	0.9216	0.8834	0.872	0.828
10 µM, coculture fibroblast: HMF	0.8548	0.757	0.791	0.925	0.967	0.937	0.889	0.877	0.827
10 µM, coculture fibroblast: HPFa	0.959	0.849	0.879	0.821	0.86	0.9262	0.935	0.912	0.85
10 µM, coculture fibroblast: HUF	0.951	0.921	0.903	0.86077	0.8331	0.8132	0.7692	0.7359	0.7153
10 µM, coculture fibroblast: Hs5	0.89	0.771	0.788	0.883	0.862	0.839	0.83	0.967	0.88
10 µM, coculture fibroblast: Hs27A	0.88556	0.899	0.859	0.863	0.805	0.784	0.749	0.721	0.697
10 µM, coculture fibroblast: Hs343T	0.911	0.883	0.836	0.92	0.802	0.785	0.874	0.875	0.834
10 µM, coculture fibroblast: WS1	0.919	0.8944	0.909	0.9124	0.89	0.849	0.829	0.785	0.756
100 µM, coculture fibroblast: C12385	0.587	0.471	0.447	0.408	0.378	0.379	0.363	0.349	0.332
100 µM, coculture fibroblast: H6013	0.575	0.3722	0.3159	0.2697	0.25	0.2276	0.199	0.176	0.128
100 µM, coculture fibroblast: H6019	0.554	0.388	0.336	0.273	0.237	0.218	0.178	0.158	0.143
100 µM, coculture fibroblast: H6076	0.926	0.821	0.861	0.852	0.797	0.744	0.681	0.637	0.67
100 µM, coculture fibroblast: H6231	0.8756	0.939	0.974	0.966	0.93	0.913	0.865	0.842	0.817
100 µM, coculture fibroblast: HADF	0.556	0.388	0.321	0.274	0.254	0.232	0.2	0.186	0.131
100 µM, coculture fibroblast: HCFa	0.647	0.382	0.31	0.265	0.235	0.215	0.184	0.157	0.115
100 µM, coculture fibroblast: HCPF	0.895	0.8908	0.736	0.694	0.74	0.7	0.647	0.633	0.618
100 µM, coculture fibroblast: HHSteC	0.611	0.419	0.354	0.295	0.278	0.264	0.216	0.196	0.148
100 µM, coculture fibroblast: HMF	0.8147	0.9081	0.813	0.7756	0.622	0.556	0.491	0.444	0.421
100 µM, coculture fibroblast: HPFa	0.876	0.558	0.47	0.386	0.372	0.357	0.303	0.284	0.221
100 µM, coculture fibroblast: HUF	0.687	0.461	0.401	0.339	0.296	0.274	0.235	0.212	0.193
100 µM, coculture fibroblast: Hs5	0.913	0.888	0.851	0.7583	0.592	0.532	0.481	0.43	0.437
100 µM, coculture fibroblast: Hs27A	0.582	0.396	0.327	0.286	0.262	0.242	0.219	0.196	0.148
100 µM, coculture fibroblast: Hs343T	0.864	0.932	0.788	0.692	0.546	0.497	0.442	0.41	0.391
100 µM, coculture fibroblast: WS1	0.448	0.367	0.309	0.25	0.209	0.185	0.155	0.13	0.115

The reference is the same well before dosing, and untreated signal decays as well.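 Labels refer to human fibroblasts, largely primary: uterine (C12385, HUF), lung (H6013), bone (Hs27A), adrenal (HADF), skin (WS1), plus mammary HMF and breast cancer-associated Hs343T. Cancer lines are basal-like or mesenchymal-like triple-negative breast cancer. The paper counts as hits responses shifting over 3x the replicate standard deviation. The tissue of the other fibroblasts is not given here.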
